Reference: patent US9271963B2, “Selective inhibitors of human corticosteroid synthases” (UNIVERSITAT DES SAARLANDES, priority 2005, dated 2016)

Chains of the proteins cited; added tags and fusions are not shown. Lines headed by an entry give the natural chain unless they say otherwise; changes in a name come on top.
UniProt P11511: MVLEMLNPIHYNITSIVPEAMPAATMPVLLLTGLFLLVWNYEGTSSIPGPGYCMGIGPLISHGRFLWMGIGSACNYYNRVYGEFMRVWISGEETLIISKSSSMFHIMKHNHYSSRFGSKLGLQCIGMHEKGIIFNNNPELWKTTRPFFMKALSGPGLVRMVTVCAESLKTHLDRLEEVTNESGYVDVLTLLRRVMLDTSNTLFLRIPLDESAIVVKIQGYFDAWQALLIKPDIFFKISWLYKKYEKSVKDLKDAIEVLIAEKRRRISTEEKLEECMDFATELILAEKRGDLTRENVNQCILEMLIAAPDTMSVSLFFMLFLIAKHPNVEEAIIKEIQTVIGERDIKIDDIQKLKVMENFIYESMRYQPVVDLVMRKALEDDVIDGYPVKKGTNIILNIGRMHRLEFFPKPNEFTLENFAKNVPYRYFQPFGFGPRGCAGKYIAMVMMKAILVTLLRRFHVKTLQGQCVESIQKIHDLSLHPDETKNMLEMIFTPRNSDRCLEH

Molecular target: human placental CYP19 (Homo sapiens (Human), UniProt P11511)
Assay: CYP19 (aromatase) inhibition, human placental microsomes
Type: biochemical
Conditions: Table 1, androstenedione 2.5 μM

- IC50: 2820 nM
SMILES: c1ccc2cc(-n3ccnc3)ccc2c1 [Compound 23, 1-(2-Naphthyl)-1H-imidazole]
